This passage reports binding results from PMC12003058.

Chains of the proteins cited; added tags and fusions are not shown.
UniProt Q3TKT4: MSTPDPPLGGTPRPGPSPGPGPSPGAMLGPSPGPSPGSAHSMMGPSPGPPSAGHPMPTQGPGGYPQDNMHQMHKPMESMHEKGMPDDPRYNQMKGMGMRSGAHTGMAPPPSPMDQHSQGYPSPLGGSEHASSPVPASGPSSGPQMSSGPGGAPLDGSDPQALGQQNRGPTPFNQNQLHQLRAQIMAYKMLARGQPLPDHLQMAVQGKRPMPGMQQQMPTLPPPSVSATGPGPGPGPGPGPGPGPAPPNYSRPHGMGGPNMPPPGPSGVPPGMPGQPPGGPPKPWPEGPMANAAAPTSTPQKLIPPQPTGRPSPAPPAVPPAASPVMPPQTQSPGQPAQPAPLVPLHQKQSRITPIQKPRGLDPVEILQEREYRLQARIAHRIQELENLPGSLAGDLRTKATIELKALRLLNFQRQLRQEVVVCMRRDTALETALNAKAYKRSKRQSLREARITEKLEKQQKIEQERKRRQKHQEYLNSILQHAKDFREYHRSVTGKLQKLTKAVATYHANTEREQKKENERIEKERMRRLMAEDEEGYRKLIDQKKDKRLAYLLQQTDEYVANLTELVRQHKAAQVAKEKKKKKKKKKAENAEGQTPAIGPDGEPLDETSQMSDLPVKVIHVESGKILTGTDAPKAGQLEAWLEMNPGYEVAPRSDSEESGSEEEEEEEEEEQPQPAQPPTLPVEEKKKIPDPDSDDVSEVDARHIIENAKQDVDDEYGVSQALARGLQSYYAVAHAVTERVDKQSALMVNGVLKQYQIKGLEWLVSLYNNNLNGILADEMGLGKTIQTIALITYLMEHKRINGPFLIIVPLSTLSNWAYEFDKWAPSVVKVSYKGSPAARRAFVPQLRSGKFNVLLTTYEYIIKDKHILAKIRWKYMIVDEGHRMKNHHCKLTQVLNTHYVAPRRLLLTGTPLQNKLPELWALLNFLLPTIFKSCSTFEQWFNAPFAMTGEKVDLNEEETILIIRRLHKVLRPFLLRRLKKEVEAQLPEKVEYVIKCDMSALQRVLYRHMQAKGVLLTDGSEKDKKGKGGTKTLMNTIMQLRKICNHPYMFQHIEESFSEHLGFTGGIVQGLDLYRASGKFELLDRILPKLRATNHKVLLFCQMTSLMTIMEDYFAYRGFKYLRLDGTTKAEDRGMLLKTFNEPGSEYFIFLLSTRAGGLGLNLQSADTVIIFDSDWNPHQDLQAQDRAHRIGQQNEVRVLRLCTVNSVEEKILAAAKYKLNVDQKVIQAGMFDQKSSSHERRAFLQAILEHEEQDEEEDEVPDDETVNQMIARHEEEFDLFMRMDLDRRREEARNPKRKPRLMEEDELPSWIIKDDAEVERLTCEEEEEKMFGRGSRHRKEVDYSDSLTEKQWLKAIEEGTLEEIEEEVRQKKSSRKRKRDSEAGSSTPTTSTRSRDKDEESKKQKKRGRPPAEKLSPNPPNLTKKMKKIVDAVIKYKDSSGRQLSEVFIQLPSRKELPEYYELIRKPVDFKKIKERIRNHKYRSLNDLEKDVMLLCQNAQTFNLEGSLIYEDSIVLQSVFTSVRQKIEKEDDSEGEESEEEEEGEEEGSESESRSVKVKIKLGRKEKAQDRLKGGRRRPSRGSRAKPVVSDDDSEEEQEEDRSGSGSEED

No constants are given. Whether binding was seen depends on the method and setting. Binding seen in cells or lysates may run through a third protein. Some entries that bind do so weakly or less than the wild type. Sequences can lack the tags named with a protein.

Assay [1] concerns the target T1, Letm1 domain containing 1 (Letmd1)-V5, expressed in brown adipocytes (UniProt Q924L1).
T1 sequence: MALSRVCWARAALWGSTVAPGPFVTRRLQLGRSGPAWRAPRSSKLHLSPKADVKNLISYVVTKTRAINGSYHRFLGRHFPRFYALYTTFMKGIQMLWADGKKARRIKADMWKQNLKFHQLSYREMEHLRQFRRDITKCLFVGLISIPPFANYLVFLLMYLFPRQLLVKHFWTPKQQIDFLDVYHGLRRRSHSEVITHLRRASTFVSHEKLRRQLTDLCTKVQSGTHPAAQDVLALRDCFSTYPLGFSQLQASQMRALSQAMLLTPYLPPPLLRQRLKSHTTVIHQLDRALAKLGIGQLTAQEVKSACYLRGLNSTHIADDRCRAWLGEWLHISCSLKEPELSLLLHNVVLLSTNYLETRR
Put plainly: co-IP; BAT cell lysate in IP lysis buffer (50 mM HEPES pH 7.4, 150 mM NaCl, 1% Triton X-100); Dynabeads protein A with anti-Brg1 or anti-V5; IgG controls; immunoblot. For orientation: A western blot detects proteins with antibodies after separation by electrophoresis.

Assay [2] has as its target T2, GST-Letmd1-Flag, full length (UniProt Q924L1).
T2 sequence: T1 sequence
Put plainly: pull-down; 10 ug GST fusion protein (full length or deletion mutant) with glutathione-agarose beads and precleared lysate of HeLa cells expressing Brg1-V5 or Letmd1-V5; 6 hours at 4°C; four washes; blot with anti-V5 or anti-Flag; only the target purified.

The target of assay [3] is Brg1 (Smarca4), chromatin remodeling protein, in brown adipocytes (mouse (endogenous in primary BAT cells)) (UniProt Q3TKT4). Put plainly: co-IP; BAT cell lysate in IP lysis buffer (50 mM HEPES pH 7.4, 150 mM NaCl, 1% Triton X-100); Dynabeads protein A with anti-Brg1 or anti-V5; IgG controls; immunoblot.

As for “Brg1 (Smarca4), chromatin remodeling protein, in brown adipocytes (from UniProt Q3TKT4 1-1613)”, the binding entry in assay [1] is “binds”.

Turning to “Brg1-V5, expressed in HeLa cells (from UniProt Q3TKT4 1-1613)”, the binding entry in assay [2] is given as “binds”.

B1: Letm1 domain containing 1 (Letmd1)-V5, expressed in brown adipocytes (protein, UniProt Q924L1 1-360)
chain: T1 sequence
Turning to B1, the binding entry in assay [3] is on record as “binds”.
